Source: article PMC7819943, “Rice protein-binding microarrays: a tool to detect cis-acting elements near promoter regions in rice”
The other results are listed elsewhere or left out.

Sequences of proteins named here, by UniProt entry; tags and fusion partners are left off.
UniProt Q0JBA9, entry or part of it: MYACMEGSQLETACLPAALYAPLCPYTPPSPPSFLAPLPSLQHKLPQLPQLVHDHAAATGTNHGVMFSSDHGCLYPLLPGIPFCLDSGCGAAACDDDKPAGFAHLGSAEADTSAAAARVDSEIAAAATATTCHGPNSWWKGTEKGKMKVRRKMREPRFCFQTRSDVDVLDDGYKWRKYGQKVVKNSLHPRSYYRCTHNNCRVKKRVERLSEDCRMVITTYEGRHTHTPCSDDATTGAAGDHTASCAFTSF

target: OsWRKY34 (Oryza sativa, UniProt Q0JBA9 1-250); test: protein-binding microarray (RPBM); PBS, 2% BSA, 51.3 ng/ul salmon testes DNA, 50 uM zinc acetate, 200 nM TF, 25 C, 1 h; high values mean tight binding; conditions: protein: recombinant; tags: N-terminal polyhistidine and DsRed monomer fusion (pET32a); label: CyDye5-dUTP incorporated in the synthesized complementary strand; 3' TTTTT single-stranded linker to array surface; dsDNA, one strand shown
Summary of the method: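 In PBS with 2% BSA, salmon testes DNA and 50 µM zinc acetate, 200 nM protein was incubated on a custom Agilent array at 25 °C for 1 h and then washed off. The array had been made double-stranded by primer extension with Cy5-dUTP and blocked with 2% BSA. The proteins were transcription factors fused N-terminally to polyhistidine and DsRed, expressed in E. coli BL21-CodonPlus and purified on Ni–NTA. The binding signal is per-feature fluorescence intensity (arbitrary units) from an Axon 4000B scanner.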

Row | Sequence | binding signal
1 | ACATTCAAATTTTGGAGTTTTTTTTATCTTTTCGTTATCCCGGAGTCACCTAGTGCAG | 8610 fluorescence intensity (a.u.)
2 | CTTCCTGGGCGCCATCCGCGTCGCCGCCACCAACATCACGCGGAGTCACCTAGTGCAG | 8880 fluorescence intensity (a.u.)
3 | CTCTGGGGCTCTGGGCAGGGCAACCAGCGGGTGGGGAGGACGGAGTCACCTAGTGCAG | 10300 fluorescence intensity (a.u.)
4 | AGGAGGCGACGGCGGAGGAGGTGGTGGTGGTGGTGGTGGTCGGAGTCACCTAGTGCAG | 15400 fluorescence intensity (a.u.)
5 | CGCCATGTTCTCTCCAGTTCCCACCTAATATCTGAGGATACGGAGTCACCTAGTGCAG | 9850 fluorescence intensity (a.u.)
6 | GATGCATTTTTGTCTGGGCGTTGTCCTTGTGGAAGCATCTCGGAGTCACCTAGTGCAG | 10000 fluorescence intensity (a.u.)
7 | CTCTACCGCTGCCGCCACCTCGCGTCTCCTCCGCCTCCCCCGGAGTCACCTAGTGCAG | 9290 fluorescence intensity (a.u.)
8 | ACAATTGTCCATATTGTGTCCAAAGCACACACTGCTTTCACGGAGTCACCTAGTGCAG | 9160 fluorescence intensity (a.u.)
9 | TCTCTTTGTCCTCGAGCTCAAATTGAGGCTATGTTCGTCTCGGAGTCACCTAGTGCAG | 9580 fluorescence intensity (a.u.)
10 | GGGGTGCTAATGAGACTAATTTTGTGTGGGGACCATTAAACGGAGTCACCTAGTGCAG | 9800 fluorescence intensity (a.u.)
11 | TCGCTGTTATAAGCTCTCCTCTAGCTCGTCCTCATCCAAACGGAGTCACCTAGTGCAG | 8410 fluorescence intensity (a.u.)
12 | CCTTGCCGCCGATCGTCTTCGACTACGCGTTTACGCCATCCGGAGTCACCTAGTGCAG | 9130 fluorescence intensity (a.u.)
13 | TGGTATATTTGGTTGTTGCTTTGACTTGATATCTGAATAACGGAGTCACCTAGTGCAG | 11000 fluorescence intensity (a.u.)
14 | TATACACATAAACTTTCAACTTTTCCGTCATATCGTTTCACGGAGTCACCTAGTGCAG | 8120 fluorescence intensity (a.u.)
15 | CTTTAACTAATTTTTTTTTACTTTGGACTATTGTCGATAACGGAGTCACCTAGTGCAG | 8200 fluorescence intensity (a.u.)
16 | TTTTGGTTTTATGAGGCGGTGGATGGATACTTGTTACACTCGGAGTCACCTAGTGCAG | 10300 fluorescence intensity (a.u.)
17 | TGGATACTTAGCAATTCATTCTATGCTCTGACTTTATTTCCGGAGTCACCTAGTGCAG | 9800 fluorescence intensity (a.u.)
18 | CTCCTTCCATTTTACGATACTGCCACCTGAGGTCAACAACCGGAGTCACCTAGTGCAG | 8260 fluorescence intensity (a.u.)
19 | CCACTCCACACTGGCACACTGCCCATATCCATCTATTCTGCGGAGTCACCTAGTGCAG | 8680 fluorescence intensity (a.u.)
20 | CAAGCTGTTACTTTCTTGGTGGGCTTCTGTGTGCTTTATTCGGAGTCACCTAGTGCAG | 9940 fluorescence intensity (a.u.)
21 | TTATTTTCTAATTGTATTTCTATATGGACTTTAGTCTTCTCGGAGTCACCTAGTGCAG | 8830 fluorescence intensity (a.u.)

Row | Sequence | binding signal
22 | GGATTGTTACACCGTCCTGATATCAGTTATTTGATGAATCCGGAGTCACCTAGTGCAG | 9240 fluorescence intensity (a.u.)
23 | TGTGGTTTACGCGTCCCGTTTAATTCTTGTGTTGACTCGGCGGAGTCACCTAGTGCAG | 8030 fluorescence intensity (a.u.)
24 | CTCTTGTGTGTAGATCGATACTCCTACTGAATTACTCTGACGGAGTCACCTAGTGCAG | 9270 fluorescence intensity (a.u.)
25 | GCCCTGATGTCCGCGTCCGTGTGCGCCGCCACCGCCCGCCCGGAGTCACCTAGTGCAG | 8090 fluorescence intensity (a.u.)
26 | TACCGCCTGAAATCCAACATTATTATGCACTGTAATTTACCGGAGTCACCTAGTGCAG | 8170 fluorescence intensity (a.u.)
27 | GCTACCCCGTACTTCACCGCCTGAGTCACTAACCCAAGCCCGGAGTCACCTAGTGCAG | 12500 fluorescence intensity (a.u.)
28 | TTGTTTATTTTCGTTGTCACGGGGTATTTTCTAGTTATCTCGGAGTCACCTAGTGCAG | 11500 fluorescence intensity (a.u.)
29 | GTCCAGCTGTTTACTGACTGATTCTGTATAATTAGTTTTTCGGAGTCACCTAGTGCAG | 8210 fluorescence intensity (a.u.)
30 | AGCCTAGGTGAGTTCTGGATATGTCTTTGTGCTTTTTTTTCGGAGTCACCTAGTGCAG | 8300 fluorescence intensity (a.u.)
31 | CCTTTTTGGTCCAATCCTTTTACCTTCTATTTCCTCCTCCCGGAGTCACCTAGTGCAG | 9120 fluorescence intensity (a.u.)
32 | ACGCCGGCGGTGGCCCACGCTGCTGCTCGTCATCCTCGCCCGGAGTCACCTAGTGCAG | 8890 fluorescence intensity (a.u.)
33 | CTCTTGTCGGCGTCTCTCTCTCGCGCCGCCGCCTCGGGTTCGGAGTCACCTAGTGCAG | 11700 fluorescence intensity (a.u.)
34 | ACCACCAGTACATATATCGTTTCGTTTGCGCCCTACCACTCGGAGTCACCTAGTGCAG | 9130 fluorescence intensity (a.u.)
35 | ACTCGCGAGACTCTCTCTCTCTCTCTCTCTCGCTCCTATTCGGAGTCACCTAGTGCAG | 8230 fluorescence intensity (a.u.)
36 | CTCGCTCGCTGCTGTTTTACACTATTCACGTTTAACATTTCGGAGTCACCTAGTGCAG | 9630 fluorescence intensity (a.u.)
37 | AGGTAGTCAAGGTGGACTTATTCCTTTTGTTTCTTCCATTCGGAGTCACCTAGTGCAG | 8900 fluorescence intensity (a.u.)
38 | GGATGACACGTGGGCCCCACCATTTTCTAATTATTTTTTTCGGAGTCACCTAGTGCAG | 9530 fluorescence intensity (a.u.)
39 | ATTTAGAACTGTCCATTCATCTATTCTTTTCCCGTACTAACGGAGTCACCTAGTGCAG | 9880 fluorescence intensity (a.u.)
40 | ACTCCAATTCCATACTGGGCTTCTGTGTTCTGTCATTGCTCGGAGTCACCTAGTGCAG | 9360 fluorescence intensity (a.u.)
41 | AATTTGTACTGAACGGGTAGGGGTATCATTGTCATTTTCTCGGAGTCACCTAGTGCAG | 14300 fluorescence intensity (a.u.)
42 | CTTTATTCTCGATGCTTAGCTTTTCTCCCCTGCTTTGACCCGGAGTCACCTAGTGCAG | 9230 fluorescence intensity (a.u.)

Taken from above:
Entry for TTGTTTATTTTCGTTGTCACGGGGTATTTTCTAGTTATCTCGGAGTCACCTAGTGCAG under binding signal: 11500 fluorescence intensity (a.u.)
Entry for CTCTTGTGTGTAGATCGATACTCCTACTGAATTACTCTGACGGAGTCACCTAGTGCAG under binding signal: 9270 fluorescence intensity (a.u.)
